Laboratory results published in PMC10486482.
Results are given in words; binding and its absence hold for the method and conditions named. Binding seen in cells or lysates may run through a third protein. Here binding means that the protein was enriched with, or labelled near, the bait; the list need not be complete. Tags and fused reporters may be left off the sequences shown.

By UniProt entry, the sequences of proteins in these tests, tags left out.
UniProt O97758: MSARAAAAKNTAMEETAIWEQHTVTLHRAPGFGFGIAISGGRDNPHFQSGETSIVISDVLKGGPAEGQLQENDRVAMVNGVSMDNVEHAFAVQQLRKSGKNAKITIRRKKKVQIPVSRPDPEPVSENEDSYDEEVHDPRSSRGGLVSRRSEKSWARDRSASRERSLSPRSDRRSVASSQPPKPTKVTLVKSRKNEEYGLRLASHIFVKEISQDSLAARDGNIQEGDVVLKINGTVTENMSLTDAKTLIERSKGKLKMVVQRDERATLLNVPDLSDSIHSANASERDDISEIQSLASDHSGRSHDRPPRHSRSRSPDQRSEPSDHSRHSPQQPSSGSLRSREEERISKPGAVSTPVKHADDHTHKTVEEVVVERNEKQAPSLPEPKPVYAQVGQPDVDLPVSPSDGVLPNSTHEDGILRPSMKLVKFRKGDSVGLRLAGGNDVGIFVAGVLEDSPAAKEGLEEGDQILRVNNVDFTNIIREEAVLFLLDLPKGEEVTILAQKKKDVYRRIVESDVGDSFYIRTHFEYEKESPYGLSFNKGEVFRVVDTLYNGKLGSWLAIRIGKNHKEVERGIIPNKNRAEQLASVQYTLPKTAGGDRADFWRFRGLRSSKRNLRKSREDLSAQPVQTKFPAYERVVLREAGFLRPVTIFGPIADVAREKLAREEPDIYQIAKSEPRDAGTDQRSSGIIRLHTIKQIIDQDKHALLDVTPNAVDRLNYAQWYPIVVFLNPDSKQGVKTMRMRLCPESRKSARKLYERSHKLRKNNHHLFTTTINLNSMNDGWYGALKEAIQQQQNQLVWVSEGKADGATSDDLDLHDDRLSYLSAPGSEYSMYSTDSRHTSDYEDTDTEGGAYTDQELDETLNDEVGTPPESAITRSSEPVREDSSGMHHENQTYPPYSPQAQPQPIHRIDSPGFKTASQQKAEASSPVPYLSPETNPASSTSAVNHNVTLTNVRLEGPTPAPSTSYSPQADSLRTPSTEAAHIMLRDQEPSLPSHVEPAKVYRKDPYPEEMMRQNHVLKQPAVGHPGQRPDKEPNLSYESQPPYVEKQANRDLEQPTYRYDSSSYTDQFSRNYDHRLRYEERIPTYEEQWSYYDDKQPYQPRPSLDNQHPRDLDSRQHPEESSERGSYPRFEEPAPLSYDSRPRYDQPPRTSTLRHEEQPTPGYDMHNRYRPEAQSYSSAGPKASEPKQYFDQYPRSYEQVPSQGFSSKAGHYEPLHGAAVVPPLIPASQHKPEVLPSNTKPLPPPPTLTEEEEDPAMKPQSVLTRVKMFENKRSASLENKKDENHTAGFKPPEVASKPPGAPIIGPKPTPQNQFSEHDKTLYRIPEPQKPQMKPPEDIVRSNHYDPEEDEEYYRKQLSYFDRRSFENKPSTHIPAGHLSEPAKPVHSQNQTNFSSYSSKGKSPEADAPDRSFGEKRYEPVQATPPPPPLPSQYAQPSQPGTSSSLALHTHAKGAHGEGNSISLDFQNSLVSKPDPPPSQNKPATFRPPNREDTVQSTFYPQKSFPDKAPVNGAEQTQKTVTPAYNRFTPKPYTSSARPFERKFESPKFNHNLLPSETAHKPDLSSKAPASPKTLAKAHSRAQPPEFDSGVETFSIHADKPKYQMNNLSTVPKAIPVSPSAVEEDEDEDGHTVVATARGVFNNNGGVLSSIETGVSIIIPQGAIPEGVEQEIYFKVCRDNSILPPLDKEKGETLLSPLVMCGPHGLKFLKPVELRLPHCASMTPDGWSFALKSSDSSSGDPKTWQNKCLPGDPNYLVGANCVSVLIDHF

Target: T1, BirA-p100AmotL2 (human p100AmotL2 fused to the promiscuous E. coli biotin ligase BirA*) (human) (UniProt Q9Y2J4)
T1 sequence: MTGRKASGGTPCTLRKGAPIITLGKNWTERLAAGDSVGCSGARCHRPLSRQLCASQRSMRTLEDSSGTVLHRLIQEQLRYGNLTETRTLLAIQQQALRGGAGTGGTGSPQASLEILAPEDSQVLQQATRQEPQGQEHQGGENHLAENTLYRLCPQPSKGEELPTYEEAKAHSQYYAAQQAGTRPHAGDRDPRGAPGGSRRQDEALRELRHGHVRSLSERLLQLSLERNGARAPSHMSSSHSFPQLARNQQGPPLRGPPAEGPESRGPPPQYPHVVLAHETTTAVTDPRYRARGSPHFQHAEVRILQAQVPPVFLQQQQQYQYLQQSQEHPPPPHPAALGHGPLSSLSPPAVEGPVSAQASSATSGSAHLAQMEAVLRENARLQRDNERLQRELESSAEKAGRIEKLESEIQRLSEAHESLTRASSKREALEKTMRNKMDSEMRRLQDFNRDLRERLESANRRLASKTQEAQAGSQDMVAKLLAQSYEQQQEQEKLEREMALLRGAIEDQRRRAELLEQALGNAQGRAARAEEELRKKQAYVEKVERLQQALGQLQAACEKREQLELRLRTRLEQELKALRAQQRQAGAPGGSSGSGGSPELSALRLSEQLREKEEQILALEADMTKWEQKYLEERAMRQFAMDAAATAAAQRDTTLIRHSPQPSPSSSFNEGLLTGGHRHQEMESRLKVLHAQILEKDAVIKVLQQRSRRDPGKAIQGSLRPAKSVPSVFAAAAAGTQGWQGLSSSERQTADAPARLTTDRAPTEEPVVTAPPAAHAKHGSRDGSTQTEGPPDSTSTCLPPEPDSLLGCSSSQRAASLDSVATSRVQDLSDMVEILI
Assay: proximity labelling; BioID: MDCK cells stably expressing BirA-p100AmotL2, 50 µM biotin for 16 h; lysis in 8 M urea buffer; biotinylated proteins purified on streptavidin beads and identified by mass spectrometry; controls were empty vector ± biotin and p100AmotL2 without biotin; n = 3

Substance | binding
Mothers against decapentaplegic homolog 3 (canine (endogenous in MDCK)) | binds
p120 catenin (canine (endogenous in MDCK)) | binds
Zona Occludens-1 (from UniProt O97758 1-1769) | binds

Next, values leading:

binding | Substance
binds | alpha-catenin (canine (endogenous in MDCK))
binds | vinculin (canine (endogenous in MDCK))
